For 36 targets, NP40-soluble protein abundance results are on record in the supplement of paper PMC6411743.

Sequences of proteins named here, by UniProt entry; tags and fusion partners are left off. A change or cut given only in a name is not applied to a line headed by its entry.
UniProt Q07820, whole entry: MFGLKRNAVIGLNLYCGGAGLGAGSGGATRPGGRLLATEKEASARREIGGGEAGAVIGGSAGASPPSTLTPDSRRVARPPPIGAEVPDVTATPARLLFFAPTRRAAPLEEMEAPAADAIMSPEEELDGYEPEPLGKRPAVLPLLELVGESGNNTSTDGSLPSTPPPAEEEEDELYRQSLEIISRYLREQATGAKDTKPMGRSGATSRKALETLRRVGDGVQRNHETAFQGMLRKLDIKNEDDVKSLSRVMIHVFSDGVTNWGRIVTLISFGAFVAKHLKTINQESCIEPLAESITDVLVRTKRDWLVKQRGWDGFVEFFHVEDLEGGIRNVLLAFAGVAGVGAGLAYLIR
UniProt Q01826: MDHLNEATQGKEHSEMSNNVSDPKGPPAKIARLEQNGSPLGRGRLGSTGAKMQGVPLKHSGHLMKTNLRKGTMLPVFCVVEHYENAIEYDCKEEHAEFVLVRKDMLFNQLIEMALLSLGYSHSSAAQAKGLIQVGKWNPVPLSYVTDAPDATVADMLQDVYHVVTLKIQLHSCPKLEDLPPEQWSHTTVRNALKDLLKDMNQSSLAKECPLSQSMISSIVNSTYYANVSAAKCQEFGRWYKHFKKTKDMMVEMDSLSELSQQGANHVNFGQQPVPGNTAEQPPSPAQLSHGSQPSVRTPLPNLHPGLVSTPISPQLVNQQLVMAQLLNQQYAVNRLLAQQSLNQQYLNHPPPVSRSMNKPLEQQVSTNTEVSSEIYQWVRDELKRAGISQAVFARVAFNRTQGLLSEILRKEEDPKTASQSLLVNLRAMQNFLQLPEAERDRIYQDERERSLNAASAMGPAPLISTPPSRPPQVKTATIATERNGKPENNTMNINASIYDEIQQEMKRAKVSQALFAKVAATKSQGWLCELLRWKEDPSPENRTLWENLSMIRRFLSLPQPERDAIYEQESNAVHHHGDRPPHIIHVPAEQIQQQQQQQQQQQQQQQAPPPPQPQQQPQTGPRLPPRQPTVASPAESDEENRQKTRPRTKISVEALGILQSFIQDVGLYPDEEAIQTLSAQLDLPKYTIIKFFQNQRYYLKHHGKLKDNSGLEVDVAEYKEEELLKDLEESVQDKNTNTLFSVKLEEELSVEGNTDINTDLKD
UniProt P67936, whole entry: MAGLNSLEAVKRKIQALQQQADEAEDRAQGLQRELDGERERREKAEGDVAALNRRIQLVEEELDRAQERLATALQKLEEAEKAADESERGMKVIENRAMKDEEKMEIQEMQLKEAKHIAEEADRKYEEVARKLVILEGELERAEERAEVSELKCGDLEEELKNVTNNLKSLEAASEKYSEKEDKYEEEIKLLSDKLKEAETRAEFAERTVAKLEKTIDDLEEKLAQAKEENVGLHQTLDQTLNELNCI
UniProt P62995: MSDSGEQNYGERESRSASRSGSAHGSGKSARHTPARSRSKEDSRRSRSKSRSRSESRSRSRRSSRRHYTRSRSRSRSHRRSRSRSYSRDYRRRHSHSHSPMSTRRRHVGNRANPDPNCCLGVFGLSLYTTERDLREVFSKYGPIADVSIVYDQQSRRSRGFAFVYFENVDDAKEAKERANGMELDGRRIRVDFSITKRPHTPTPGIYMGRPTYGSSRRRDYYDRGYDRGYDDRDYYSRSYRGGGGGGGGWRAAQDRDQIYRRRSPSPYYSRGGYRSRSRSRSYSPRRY
UniProt P78527, whole entry: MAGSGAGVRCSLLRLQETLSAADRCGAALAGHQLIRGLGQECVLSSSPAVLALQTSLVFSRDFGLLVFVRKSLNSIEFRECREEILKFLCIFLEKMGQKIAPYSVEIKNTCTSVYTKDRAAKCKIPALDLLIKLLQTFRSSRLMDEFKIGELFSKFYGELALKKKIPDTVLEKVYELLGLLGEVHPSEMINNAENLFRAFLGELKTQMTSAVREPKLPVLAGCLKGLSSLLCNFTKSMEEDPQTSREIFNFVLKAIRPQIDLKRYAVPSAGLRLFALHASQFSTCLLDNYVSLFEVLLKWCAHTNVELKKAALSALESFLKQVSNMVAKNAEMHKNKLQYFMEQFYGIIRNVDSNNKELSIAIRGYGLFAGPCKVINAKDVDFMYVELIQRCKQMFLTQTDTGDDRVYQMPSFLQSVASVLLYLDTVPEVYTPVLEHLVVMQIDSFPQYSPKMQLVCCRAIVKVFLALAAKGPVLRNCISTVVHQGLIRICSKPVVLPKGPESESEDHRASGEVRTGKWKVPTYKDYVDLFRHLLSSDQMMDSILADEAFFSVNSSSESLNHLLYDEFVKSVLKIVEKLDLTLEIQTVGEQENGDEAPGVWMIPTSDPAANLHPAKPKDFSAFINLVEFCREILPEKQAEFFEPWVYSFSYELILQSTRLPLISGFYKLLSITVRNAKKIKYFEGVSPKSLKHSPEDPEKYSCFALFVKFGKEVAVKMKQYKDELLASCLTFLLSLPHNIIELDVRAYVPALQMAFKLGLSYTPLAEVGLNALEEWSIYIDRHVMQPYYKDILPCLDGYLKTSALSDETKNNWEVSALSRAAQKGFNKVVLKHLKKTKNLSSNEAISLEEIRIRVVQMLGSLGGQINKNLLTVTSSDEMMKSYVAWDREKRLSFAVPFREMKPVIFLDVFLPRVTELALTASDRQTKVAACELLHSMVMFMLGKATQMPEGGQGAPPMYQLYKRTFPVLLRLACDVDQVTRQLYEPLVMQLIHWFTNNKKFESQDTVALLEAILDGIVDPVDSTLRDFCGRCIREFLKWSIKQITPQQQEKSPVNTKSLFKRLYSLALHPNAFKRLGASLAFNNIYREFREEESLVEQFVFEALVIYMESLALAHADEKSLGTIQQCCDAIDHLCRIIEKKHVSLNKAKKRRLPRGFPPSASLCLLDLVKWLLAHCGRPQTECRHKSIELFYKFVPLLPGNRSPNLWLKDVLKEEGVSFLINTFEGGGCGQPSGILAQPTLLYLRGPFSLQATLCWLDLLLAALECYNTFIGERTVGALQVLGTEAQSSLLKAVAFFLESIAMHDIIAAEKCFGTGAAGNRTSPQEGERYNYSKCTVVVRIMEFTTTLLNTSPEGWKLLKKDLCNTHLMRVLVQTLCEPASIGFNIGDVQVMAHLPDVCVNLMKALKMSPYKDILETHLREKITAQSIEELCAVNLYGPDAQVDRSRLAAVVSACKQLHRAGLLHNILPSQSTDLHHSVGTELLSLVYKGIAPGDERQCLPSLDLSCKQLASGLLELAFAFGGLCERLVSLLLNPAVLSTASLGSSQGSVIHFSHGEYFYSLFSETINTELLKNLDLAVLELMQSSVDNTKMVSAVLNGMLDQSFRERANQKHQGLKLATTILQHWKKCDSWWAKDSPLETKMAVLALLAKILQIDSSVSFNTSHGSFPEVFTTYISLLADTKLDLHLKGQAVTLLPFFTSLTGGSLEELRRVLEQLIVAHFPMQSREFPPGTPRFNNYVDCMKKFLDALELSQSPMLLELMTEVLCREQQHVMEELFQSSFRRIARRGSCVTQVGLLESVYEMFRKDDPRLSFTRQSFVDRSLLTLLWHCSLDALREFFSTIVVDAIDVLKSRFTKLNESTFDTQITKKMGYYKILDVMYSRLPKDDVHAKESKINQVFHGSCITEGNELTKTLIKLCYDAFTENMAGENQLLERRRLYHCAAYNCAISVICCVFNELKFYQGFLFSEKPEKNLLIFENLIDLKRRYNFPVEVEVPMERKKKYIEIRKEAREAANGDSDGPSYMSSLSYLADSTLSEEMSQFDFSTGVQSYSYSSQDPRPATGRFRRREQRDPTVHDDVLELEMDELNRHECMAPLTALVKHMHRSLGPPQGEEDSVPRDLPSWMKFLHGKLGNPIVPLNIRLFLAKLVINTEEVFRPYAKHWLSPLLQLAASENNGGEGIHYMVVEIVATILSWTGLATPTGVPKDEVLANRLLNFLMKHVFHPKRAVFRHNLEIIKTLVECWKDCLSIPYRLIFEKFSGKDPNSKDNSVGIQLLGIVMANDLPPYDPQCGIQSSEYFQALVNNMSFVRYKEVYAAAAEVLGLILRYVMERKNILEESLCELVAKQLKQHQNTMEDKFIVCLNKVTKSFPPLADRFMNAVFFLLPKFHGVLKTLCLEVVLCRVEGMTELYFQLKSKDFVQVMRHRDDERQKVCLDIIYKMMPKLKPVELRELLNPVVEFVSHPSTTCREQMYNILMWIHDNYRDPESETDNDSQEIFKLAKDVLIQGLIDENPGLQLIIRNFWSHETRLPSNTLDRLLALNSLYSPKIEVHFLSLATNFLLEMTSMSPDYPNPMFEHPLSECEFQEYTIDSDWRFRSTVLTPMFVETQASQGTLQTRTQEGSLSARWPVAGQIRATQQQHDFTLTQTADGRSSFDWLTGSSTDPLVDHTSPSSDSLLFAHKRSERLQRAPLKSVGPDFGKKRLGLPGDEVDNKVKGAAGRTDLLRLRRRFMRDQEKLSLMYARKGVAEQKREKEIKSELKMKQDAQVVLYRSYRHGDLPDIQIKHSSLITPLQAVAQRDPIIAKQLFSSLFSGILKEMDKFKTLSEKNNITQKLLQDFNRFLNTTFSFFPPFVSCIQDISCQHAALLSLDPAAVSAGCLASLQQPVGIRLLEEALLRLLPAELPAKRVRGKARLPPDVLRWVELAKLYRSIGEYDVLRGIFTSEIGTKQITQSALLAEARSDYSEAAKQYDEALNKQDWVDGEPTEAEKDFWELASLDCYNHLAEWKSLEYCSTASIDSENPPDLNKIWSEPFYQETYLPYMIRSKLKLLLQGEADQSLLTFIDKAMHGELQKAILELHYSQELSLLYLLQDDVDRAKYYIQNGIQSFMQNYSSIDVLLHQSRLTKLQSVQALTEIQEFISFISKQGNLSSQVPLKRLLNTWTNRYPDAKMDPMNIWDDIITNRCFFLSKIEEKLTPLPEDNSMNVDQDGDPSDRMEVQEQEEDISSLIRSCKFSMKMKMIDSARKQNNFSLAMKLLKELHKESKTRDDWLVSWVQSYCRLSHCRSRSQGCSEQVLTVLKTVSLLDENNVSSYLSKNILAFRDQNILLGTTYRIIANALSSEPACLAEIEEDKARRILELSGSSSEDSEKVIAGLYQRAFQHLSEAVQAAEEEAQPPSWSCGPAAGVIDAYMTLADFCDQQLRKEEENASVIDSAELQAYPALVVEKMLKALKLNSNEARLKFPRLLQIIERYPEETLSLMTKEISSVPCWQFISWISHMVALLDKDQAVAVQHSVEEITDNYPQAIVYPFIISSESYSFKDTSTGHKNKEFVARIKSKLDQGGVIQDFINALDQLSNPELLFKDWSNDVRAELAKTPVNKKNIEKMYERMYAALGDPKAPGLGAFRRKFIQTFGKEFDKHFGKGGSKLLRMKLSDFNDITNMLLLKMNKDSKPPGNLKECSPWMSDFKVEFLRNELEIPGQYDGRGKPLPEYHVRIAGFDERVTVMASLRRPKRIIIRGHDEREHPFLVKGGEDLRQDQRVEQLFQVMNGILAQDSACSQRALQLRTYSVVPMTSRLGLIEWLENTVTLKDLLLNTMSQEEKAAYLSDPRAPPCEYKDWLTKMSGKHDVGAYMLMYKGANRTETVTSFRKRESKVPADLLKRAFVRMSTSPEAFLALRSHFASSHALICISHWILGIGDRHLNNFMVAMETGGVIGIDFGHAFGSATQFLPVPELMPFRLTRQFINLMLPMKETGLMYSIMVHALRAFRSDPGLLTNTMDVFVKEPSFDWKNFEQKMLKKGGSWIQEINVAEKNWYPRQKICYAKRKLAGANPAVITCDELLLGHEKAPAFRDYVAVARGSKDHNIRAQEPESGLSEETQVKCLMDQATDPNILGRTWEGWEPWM
UniProt Q05048: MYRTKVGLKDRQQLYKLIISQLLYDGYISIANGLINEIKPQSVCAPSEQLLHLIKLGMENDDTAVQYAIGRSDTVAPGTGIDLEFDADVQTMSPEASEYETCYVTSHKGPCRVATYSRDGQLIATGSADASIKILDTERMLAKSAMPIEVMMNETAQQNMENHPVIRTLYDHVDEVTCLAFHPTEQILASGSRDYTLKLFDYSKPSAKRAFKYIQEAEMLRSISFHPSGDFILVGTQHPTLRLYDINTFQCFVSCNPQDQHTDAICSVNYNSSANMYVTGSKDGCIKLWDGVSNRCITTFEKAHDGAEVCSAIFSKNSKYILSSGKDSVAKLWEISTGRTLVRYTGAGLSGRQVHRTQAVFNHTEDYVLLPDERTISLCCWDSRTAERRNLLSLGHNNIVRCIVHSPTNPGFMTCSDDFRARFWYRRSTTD
UniProt P78310: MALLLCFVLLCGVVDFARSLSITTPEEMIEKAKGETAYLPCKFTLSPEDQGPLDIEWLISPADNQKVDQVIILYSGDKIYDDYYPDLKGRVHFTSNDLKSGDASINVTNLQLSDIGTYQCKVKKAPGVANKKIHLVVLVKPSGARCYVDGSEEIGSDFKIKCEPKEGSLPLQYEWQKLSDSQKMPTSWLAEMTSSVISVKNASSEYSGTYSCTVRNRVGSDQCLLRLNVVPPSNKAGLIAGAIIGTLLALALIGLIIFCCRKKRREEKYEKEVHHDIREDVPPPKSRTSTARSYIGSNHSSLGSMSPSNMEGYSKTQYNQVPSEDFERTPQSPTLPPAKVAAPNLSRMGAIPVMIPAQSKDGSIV

± gives the standard deviation of the averaged measurements. The list shows a part of the results, in another mix than the full data. Most values lie at the level of the controls, where differences are scatter.

Compound in this assay: Nc1ncnc2c1ncn2[C@@H]1O[C@H](COP(=O)(O)OP(=O)(O)NP(=O)(O)O)[C@@H](O)[C@H]1O [adenylyl imidodiphosphate]
The experiment in a line: NP40-soluble protein abundance relative to vehicle (solubility fold change) (ratio); higher = more soluble protein in presence of AMP-PNP. The essentials:
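Jurkat crude lysate prepared with a Dounce homogeniser was treated at eight concentrations spanning 0.1 to 10 mM, 10 min at room temperature then 3 min at 37 °C. Solubilisation with 0.8% NP40 and benzonase and ultracentrifugation preceded TMT labelling of the supernatant for LC-MS/MS. Fold change against the detergent-processed vehicle was determined per replicate from vsn-normalised intensities, across three independent experiments.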

As for SEC61B (UniProt P60468), the NP40-soluble protein abundance (concentration: 0.1mM) worked out at 1.01 ± 0.036 and the NP40-soluble protein abundance (concentration: 0.5mM) came to 1.04 ± 0.049.

As for UniProt P62753, the NP40-soluble protein abundance reads like this: (concentration: 0.1mM) 1.057 ± 0.0091; (concentration: 0.5mM) 1.02 ± 0.047.

With MTPN (UniProt P58546), the NP40-soluble protein abundance by setting is: (concentration: 0.1mM) 0.919 ± 0.033; (concentration: 0.5mM) 0.984 ± 0.11.

For the target UniProt P78563 and related entries, the NP40-soluble protein abundance turned out to be 0.9962 ± 0.0078 (concentration: 0.1mM) and 1 ± 0.021 (concentration: 0.5mM).

On to UniProt Q03188 and related entries, for which the NP40-soluble protein abundance came to 0.975 ± 0.032 (concentration: 0.1mM) and 0.971 ± 0.01 (concentration: 0.5mM).

For UniProt Q07820 and related entries, the NP40-soluble protein abundance (concentration: 0.1mM) was 1.01 ± 0.02 and the NP40-soluble protein abundance (concentration: 0.5mM) is 0.974 ± 0.019.

On to DSTN (UniProt P60981), for which the NP40-soluble protein abundance reads like this: (concentration: 0.1mM) 0.975 ± 0.045; (concentration: 0.5mM) 1.03 ± 0.091.

For UniProt P56270-2, the NP40-soluble protein abundance reads like this: (concentration: 0.1mM) 0.976 ± 0.028; (concentration: 0.5mM) 1.02 ± 0.021.

As to CKAP4 (UniProt Q07065), the NP40-soluble protein abundance by setting is: (concentration: 0.1mM) 0.971 ± 0.017; (concentration: 0.5mM) 0.998 ± 0.05.

Regarding UniProt Q06210 and related entries, the NP40-soluble protein abundance was 1.02 ± 0.027 (concentration: 0.1mM) and 1.01 ± 0.081 (concentration: 0.5mM).

In the case of UniProt P98082 and related entries, the NP40-soluble protein abundance is, setting by setting: (concentration: 0.1mM) 0.988 ± 0.037; (concentration: 0.5mM) 1.02 ± 0.014.

UniProt Q01826 and related entries: the NP40-soluble protein abundance runs as follows: (concentration: 0.1mM) 1 ± 0.031; (concentration: 0.5mM) 1.02 ± 0.04.

Regarding TPM4 (UniProt P67936), the NP40-soluble protein abundance was 1.07 ± 0.073 (concentration: 0.1mM) and 1.31 ± 0.17 (concentration: 0.5mM).

For the target UniProt Q05086 and related entries, the NP40-soluble protein abundance runs as follows: (concentration: 0.1mM) 0.9906 ± 0.0026; (concentration: 0.5mM) 0.976 ± 0.022.

On to PRKCQ (UniProt Q04759), for which the NP40-soluble protein abundance runs as follows: (concentration: 0.1mM) 1.04 ± 0.054; (concentration: 0.5mM) 1.03 ± 0.052.

As to UniProt Q02880 and related entries, the NP40-soluble protein abundance worked out at 1.38 ± 0.03 (concentration: 0.1mM) and 1.49 ± 0.063 (concentration: 0.5mM).

For NOP14 (UniProt P78316), the NP40-soluble protein abundance runs as follows: (concentration: 0.1mM) 0.971 ± 0.012; (concentration: 0.5mM) 0.996 ± 0.049.

Consider UniProt Q05655, for which the NP40-soluble protein abundance by setting is: (concentration: 0.1mM) 1.007 ± 0.0044; (concentration: 0.5mM) 1.01 ± 0.034.

In the case of UniProt P63313, the NP40-soluble protein abundance (concentration: 0.1mM) was 1.03 ± 0.017 and the NP40-soluble protein abundance (concentration: 0.5mM) amounted to 0.993 ± 0.067.

In the case of UniProt P62995 and related entries, the NP40-soluble protein abundance came out at 1.03 ± 0.065 (concentration: 0.1mM) and 1.04 ± 0.092 (concentration: 0.5mM).

UniProt P78527: the NP40-soluble protein abundance is, setting by setting: (concentration: 0.1mM) 1.08 ± 0.054; (concentration: 0.5mM) 1.03 ± 0.14.

In the case of UniProt Q02535, the NP40-soluble protein abundance stood at 0.9759 ± 0.007 (concentration: 0.1mM) and 0.989 ± 0.012 (concentration: 0.5mM).

Take UniProt P62330: the NP40-soluble protein abundance (concentration: 0.1mM) was determined as 1.02 ± 0.013 and the NP40-soluble protein abundance (concentration: 0.5mM) was 1.06 ± 0.046.

As to DR1 (UniProt Q01658), the NP40-soluble protein abundance runs as follows: (concentration: 0.1mM) 1.01 ± 0.13; (concentration: 0.5mM) 1.01 ± 0.13.

With CSTF1 (UniProt Q05048), the NP40-soluble protein abundance worked out at 1.01 ± 0.009 (concentration: 0.1mM) and 0.989 ± 0.017 (concentration: 0.5mM).

For UniProt P62256, the NP40-soluble protein abundance by setting is: (concentration: 0.1mM) 0.984 ± 0.072; (concentration: 0.5mM) 1.02 ± 0.059.

Turning to UniProt P61970, the NP40-soluble protein abundance (concentration: 0.1mM) amounted to 0.99 ± 0.023 and the NP40-soluble protein abundance (concentration: 0.5mM) came out at 1.01 ± 0.041.

Take UniProt P60174 and related entries: the NP40-soluble protein abundance runs as follows: (concentration: 0.1mM) 0.984 ± 0.018; (concentration: 0.5mM) 1.02 ± 0.055.

Consider UniProt P61160, for which the NP40-soluble protein abundance reads like this: (concentration: 0.1mM) 1.027 ± 0.0092; (concentration: 0.5mM) 1.03 ± 0.016.

In the case of UniProt Q06330 and related entries, the NP40-soluble protein abundance reads like this: (concentration: 0.1mM) 0.986 ± 0.045; (concentration: 0.5mM) 1.01 ± 0.097.

As to UniProt P62280, the NP40-soluble protein abundance amounted to 1.02 ± 0.063 (concentration: 0.1mM) and 1.02 ± 0.082 (concentration: 0.5mM).

Turning to UniProt P55769, the NP40-soluble protein abundance runs as follows: (concentration: 0.1mM) 1.03 ± 0.027; (concentration: 0.5mM) 1.07 ± 0.032.

Regarding GMFB (UniProt P60983), the NP40-soluble protein abundance is, setting by setting: (concentration: 0.1mM) 1.009 ± 0.01; (concentration: 0.5mM) 1.02 ± 0.082.

Turning to UniProt P78310 and related entries, the NP40-soluble protein abundance (concentration: 0.1mM) is 1.02 ± 0.013 and the NP40-soluble protein abundance (concentration: 0.5mM) worked out at 1.07 ± 0.035.

Take UniProt P62714: the NP40-soluble protein abundance was found to be 0.987 ± 0.036 (concentration: 0.1mM) and 1 ± 0.051 (concentration: 0.5mM).

Turning to UniProt Q00839 and related entries, the NP40-soluble protein abundance came to 1.03 ± 0.1 (concentration: 0.1mM) and 1.05 ± 0.099 (concentration: 0.5mM).
